{"source": "paper PMC11420289", "about": "“IBR1, a novel endogenous IFIH1‐binding dsRNA, governs IFIH1 activation and M1 macrophage polarisation in ARDS”", "key": {"IFIH1-M1-Flag (CARD)": {"target": "T1, IFIH1-M1-Flag (CARD) (UniProt Q8R5F7)", "T1 sequence (looked up)": "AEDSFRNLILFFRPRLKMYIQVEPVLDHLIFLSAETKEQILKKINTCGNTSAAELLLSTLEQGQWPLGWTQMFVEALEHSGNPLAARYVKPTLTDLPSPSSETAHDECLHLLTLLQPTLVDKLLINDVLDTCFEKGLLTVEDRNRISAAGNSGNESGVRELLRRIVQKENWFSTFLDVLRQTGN", "test": "EMSA", "conditions": "0.1 pmol RNA, 30 pmol protein, ADPCP 2 mM; EMSA: 20 mM HEPES pH 7.5, 150 mM NaCl, 1.5 mM MgCl2, 2 mM DTT, 10 min at room temperature, BisTris native gel; recombinant protein; residues 7-190; protein details: Flag, His; label: 5' and 3' biotin (C6)"}, "IFIH1-M3-Flag (CTD)": {"target": "T2, IFIH1-M3-Flag (CTD) (UniProt Q8R5F7)", "T2 sequence (looked up)": "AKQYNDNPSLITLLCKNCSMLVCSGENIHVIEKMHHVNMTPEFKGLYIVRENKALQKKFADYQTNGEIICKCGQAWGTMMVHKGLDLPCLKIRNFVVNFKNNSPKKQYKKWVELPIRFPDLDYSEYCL", "test": "EMSA", "conditions": "0.1 pmol RNA, 30 pmol protein, ADPCP 2 mM; EMSA: 20 mM HEPES pH 7.5, 150 mM NaCl, 1.5 mM MgCl2, 2 mM DTT, 10 min at room temperature, BisTris native gel; recombinant protein; residues 893-1020; protein details: Flag, His; label: 5' and 3' biotin (C6)"}, "IFIH1-WT-Flag": {"target": "T3, IFIH1-WT-Flag (UniProt Q8R5F7)", "T3 sequence (looked up)": "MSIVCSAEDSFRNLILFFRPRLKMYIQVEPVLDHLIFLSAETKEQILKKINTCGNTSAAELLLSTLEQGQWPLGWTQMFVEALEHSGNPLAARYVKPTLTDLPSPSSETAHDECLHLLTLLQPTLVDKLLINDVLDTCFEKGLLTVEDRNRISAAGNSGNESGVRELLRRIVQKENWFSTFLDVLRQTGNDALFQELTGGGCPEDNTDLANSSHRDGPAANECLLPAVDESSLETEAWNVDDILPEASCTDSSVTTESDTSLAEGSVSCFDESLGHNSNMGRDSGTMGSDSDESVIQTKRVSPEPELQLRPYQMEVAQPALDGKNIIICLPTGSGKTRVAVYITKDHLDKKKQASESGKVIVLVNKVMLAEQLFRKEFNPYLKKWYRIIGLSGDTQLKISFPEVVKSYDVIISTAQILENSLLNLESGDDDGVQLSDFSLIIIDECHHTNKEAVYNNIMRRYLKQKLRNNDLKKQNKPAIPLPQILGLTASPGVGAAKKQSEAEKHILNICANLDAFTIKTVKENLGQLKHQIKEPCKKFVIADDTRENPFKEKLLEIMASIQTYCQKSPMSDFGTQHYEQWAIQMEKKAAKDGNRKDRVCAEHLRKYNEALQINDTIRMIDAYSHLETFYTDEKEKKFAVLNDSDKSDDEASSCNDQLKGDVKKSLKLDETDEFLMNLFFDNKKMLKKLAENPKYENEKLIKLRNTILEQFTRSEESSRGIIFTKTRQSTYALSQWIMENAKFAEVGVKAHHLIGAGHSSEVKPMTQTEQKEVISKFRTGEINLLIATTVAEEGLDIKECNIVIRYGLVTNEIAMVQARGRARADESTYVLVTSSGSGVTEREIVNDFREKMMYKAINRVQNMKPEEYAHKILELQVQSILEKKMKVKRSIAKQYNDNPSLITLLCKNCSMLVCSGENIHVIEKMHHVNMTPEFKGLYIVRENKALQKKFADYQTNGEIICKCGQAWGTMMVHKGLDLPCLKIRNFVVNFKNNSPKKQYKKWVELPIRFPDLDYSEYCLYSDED", "test": "EMSA", "conditions": "0.1 pmol RNA, 30 pmol protein, ADPCP 2 mM; EMSA: 20 mM HEPES pH 7.5, 150 mM NaCl, 1.5 mM MgCl2, 2 mM DTT, 10 min at room temperature, BisTris native gel; recombinant protein; residues 1-1025; protein details: Flag, His; label: 5' and 3' biotin (C6)"}, "[1]": {"target": "T4, IFIH1-M2-Flag (helicase domain) (UniProt Q8R5F7)", "T4 sequence (looked up)": "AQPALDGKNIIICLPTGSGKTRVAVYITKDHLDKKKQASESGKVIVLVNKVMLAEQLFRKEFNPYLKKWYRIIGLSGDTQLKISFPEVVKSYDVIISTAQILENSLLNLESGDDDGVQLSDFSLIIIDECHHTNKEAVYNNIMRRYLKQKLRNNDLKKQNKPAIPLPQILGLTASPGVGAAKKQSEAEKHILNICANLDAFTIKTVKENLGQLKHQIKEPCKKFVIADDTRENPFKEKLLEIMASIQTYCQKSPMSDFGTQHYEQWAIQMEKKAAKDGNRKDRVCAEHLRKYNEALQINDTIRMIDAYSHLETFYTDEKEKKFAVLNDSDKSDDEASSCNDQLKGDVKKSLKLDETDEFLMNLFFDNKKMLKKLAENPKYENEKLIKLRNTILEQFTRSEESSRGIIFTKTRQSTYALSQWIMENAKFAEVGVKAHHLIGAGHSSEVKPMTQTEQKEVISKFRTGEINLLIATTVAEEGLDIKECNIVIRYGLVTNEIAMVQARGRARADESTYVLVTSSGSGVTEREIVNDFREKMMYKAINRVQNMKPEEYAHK", "test": "EMSA", "conditions": "0.1 pmol RNA, 30 pmol protein, ADPCP 2 mM; EMSA: 20 mM HEPES pH 7.5, 150 mM NaCl, 1.5 mM MgCl2, 2 mM DTT, 10 min at room temperature, BisTris native gel; recombinant protein; residues 317-872; protein details: Flag, His; label: 5' and 3' biotin (C6)"}, "[2]": {"target": "T5, IFIH1 (endogenous, BMDM lysate) (Mus musculus) (UniProt Q8R5F7)", "T5 sequence (looked up, limits assumed)": "T3 sequence (looked up)", "test": "pull-down", "conditions": "6 ug biotin-RNA, Western blot, protein in an extract, label: 5' and 3' biotin (C6)"}}, "note": "For some assays here: Negatives hold for the conditions tested. For some assays here: At least one verdict rests on a figure or table, not on a statement of the authors. Where a protein sequence is shown, tags need not be part of it. For some assays here: For at least one entry, the source does not settle the construct or the ends of the probe. For some assays here: Results from cells or extracts need not show a direct contact.", "data": [{"sequence": "UGUAUUUUCUCCUUAUAAUCACUCCCUCCCGGGGCAUGUAAUUAAUUUCCUGAUGGAUUACUCACACGGUCUUGAAGAUGCAAUGUCAGCUAUUUAGGCUGUGCUAGGACUCAAUUACAACAACAUAUGCAUUAAGACAGGAACUGGCAAGCCGGGACUACAGCAACUACAGGGCUGGUGCUUCCCAACCGCUGGGCUAUAAUCUAUGAAACUGAGCCGGGAUCCAGCCAAUCAGUUAGCUAGCUCCUCAUAACAGGUCUAACUGGCUCUGGACAGCUAAGGGCUGCGCUGGAACGUUCCAGCGCAGCCCUUA [IBR1-WT (biotin)]", "values": [{"measurement": "binding result", "setting": "IFIH1-M1-Flag (CARD)", "value": "no binding"}, {"measurement": "binding result", "setting": "IFIH1-M3-Flag (CTD)", "value": "no binding"}, {"measurement": "binding result", "setting": "IFIH1-WT-Flag", "value": "binds"}, {"measurement": "binding result", "setting": "[1]", "value": "binds"}, {"measurement": "binding result", "setting": "[2]", "value": "binds"}]}]}
